Experimental data published in patent EP1283052A1, “Pharmaceutical composition containing caspase-8 and /or caspase-9 useful for overcoming glucocorticoid- and cancer therapy-induced apoptosis of tumours” (Deutsches Krebsforschungszentrum Stiftung des öffentlichen …, priority 2001, dated 2003).
At least one structure is not confirmed: it was looked up by name or label, or the drawing left a doubt.

How the values were obtained:
[1] = tested on: caspase-9 and -6; assay: Fluorometric caspase-6/9 activity assay in CEM cells; type: cell-based, human; conditions: Fig. 5a
Method: • (a) P693 and CEM cells were treated with cisplatin (2 µg/ml) in the absence or presence of DEX (1 µM) as indicated. 24 and 48 h following treatment cells were lysed and caspase-9 activity was determined using a fluorescent caspase-9 assay and spectroscopy. • (b) P5 and CEM cells were treated as described above. 24 h after stimulation Apaf-1 was immunoprecipitated from the cell extracts using a […]. Aliquotes of the precipitates were separated by three different gels and analysed by Western blotting using rabbit polyclonal Apaf-1, mAb cytochrome c or caspase-9 antibodies. The antibody heavy chain band (IgGH) ensures equal conditions. […]
• (A) Cell culture. […] The mice were given 0.28 mg/L DEX in drinking water, and the amount of water consumed was monitored. […] The tumour volumes were measured using callipers, and calculated using, as an approximation, the formula for volume of a hemi-ellipsoid: π(width^2 x length)/6. […] Early apoptotic changes were identified by staining of cells with fluoresceinthiocyanate (FITC)-conjugated annexin V and propidium iodide (Becton Dickinson, Heidelberg, Germany) and analysed by flow cytometry (FACScan, Becton Dickinson) as described (Herr et al., EMBO J. 16 (1997), 6200-6208) • (E) Immunohistochemistry. […] Bound antibodies were detected by FITC conjugated anti-mouse or anti-rabbit IgG (Molecular Probes Europe, Leiden, The Netherlands). […]

[2] = tested on: P5 cells; assay: Death receptor-mediated apoptosis in carcinoma cells (annexin staining, FACS); type: cell-based, human; conditions: DEX co-treatment (1 µM); Fig. 2a

Question: With C[C@@H]1C[C@H]2[C@@H]3CCC4=CC(=O)C=C[C@]4(C)[C@@]3(F)[C@@H](O)C[C@]2(C)[C@@]1(O)C(=O)CO [DEX, dexamethasone] as the compound, how does the caspase-6/9 activity ([1]; DEX alone) read?
Answer: increased caspase-6/9 activity at 24 and 48 h

Question: What about the caspase-6/9 activity ([1]; cisplatin in the presence of DEX 1 µM) of the same compound?
Answer: even more induced

Question: And the death receptor-mediated apoptosis [2]?
Answer: strongly repressed
